In patent US4056540A, “4-Phenyl-1,3-benzodioxans” (Bristol-Myers Company, priority 1975, dated 1977):
Where a name gives a salt, the structure may show the parent alone. At least one structure is not confirmed: it was looked up by name or label, or the drawing left a doubt.

Test system: pentylenetetrazole lethality
Assay: Pentylenetetrazol Standard Dose, mouse
Format: in vivo
Settings: result in words; species not given
Description: There were at least 3 animals per
Prevention of lethality was used as criterion for […]

In the case of CC(C)NC[C@@H]1Oc2ccc(Cl)cc2[C@H](c2ccccc2)O1 (relative stereo) [BL-3396, cis-6-Chloro-4-phenyl-2-(2-propylaminomethyl)-1,3-benzodioxan hydrochloride], the effectiveness against pentylenetetrazole is reported as “practically ineffective”.
